Results taken from publication PMC8517208.
These are yes or no findings as the source states them, for the method shown. Binding seen in cells or lysates may run through a third protein. Some results given as binding are weak or reduced against the parent protein; the word gives no strength. Tags and fused reporters may be left off the sequences shown.

By UniProt entry, the sequences of proteins in these tests, tags left out.
UniProt O35129: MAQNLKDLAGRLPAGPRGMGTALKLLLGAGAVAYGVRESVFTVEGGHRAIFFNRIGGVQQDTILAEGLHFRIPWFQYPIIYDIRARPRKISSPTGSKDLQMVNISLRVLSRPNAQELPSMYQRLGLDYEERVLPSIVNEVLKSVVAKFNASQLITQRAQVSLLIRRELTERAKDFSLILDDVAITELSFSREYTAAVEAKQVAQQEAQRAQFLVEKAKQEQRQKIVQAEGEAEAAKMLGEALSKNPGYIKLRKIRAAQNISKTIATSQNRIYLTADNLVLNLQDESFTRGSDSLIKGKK
UniProt P51150: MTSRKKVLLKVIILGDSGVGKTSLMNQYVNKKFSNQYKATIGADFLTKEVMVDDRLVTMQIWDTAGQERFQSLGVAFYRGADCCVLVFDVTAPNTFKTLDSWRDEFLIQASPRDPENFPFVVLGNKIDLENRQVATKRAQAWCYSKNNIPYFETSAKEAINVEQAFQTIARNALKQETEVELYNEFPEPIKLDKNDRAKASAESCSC

T1: murine EpCAM in fusion with yellow fluorescent protein (YFP) at the C-terminus, in mF9 cells (murine) (UniProt Q99JW5)
T1 sequence: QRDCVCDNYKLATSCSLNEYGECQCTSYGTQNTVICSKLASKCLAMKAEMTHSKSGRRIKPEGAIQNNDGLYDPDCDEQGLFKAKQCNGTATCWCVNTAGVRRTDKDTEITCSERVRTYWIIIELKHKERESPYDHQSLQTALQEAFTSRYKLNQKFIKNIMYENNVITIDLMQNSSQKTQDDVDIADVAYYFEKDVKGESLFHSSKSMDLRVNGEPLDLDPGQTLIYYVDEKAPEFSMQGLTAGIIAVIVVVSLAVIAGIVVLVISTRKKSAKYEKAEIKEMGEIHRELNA

T2: murine EpCAM in fusion with yellow fluorescent protein (YFP) at the C-terminus, in E14TG2α ESC (murine) (UniProt Q99JW5)
T2 sequence: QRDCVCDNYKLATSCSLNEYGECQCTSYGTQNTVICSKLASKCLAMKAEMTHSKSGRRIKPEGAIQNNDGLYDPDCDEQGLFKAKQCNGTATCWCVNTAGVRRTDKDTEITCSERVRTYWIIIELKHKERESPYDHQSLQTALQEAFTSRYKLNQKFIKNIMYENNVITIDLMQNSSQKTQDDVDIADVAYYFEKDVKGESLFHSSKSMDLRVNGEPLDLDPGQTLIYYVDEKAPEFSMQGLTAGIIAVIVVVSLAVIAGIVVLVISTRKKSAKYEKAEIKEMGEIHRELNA


Molecular target: T1, murine EpCAM in fusion with yellow fluorescent protein (YFP) at the C-terminus, in mF9 cells (murine)
Assay: co-IP; co-precipitation in mF9 cells, data not shown; no details told

Row | binding | Molecule
1 | binds | Exportin-2 (protein, UniProt Q9ERK4 1-971) MELSDANLQTLTEYLKKTLDPDPAIRRPAEKFLESVEGNQNYPLLLLTLLEKSQDNVIKVCASVTFKNYIKRNWRIVEDEPNKICEADRVAIKANIVHLMLSSPEQIQKQLSDAISIIGREDFPQKWPDLLTEMVNRFQSGDFHVINGVLRTAHSLFKRYRHEFKSNELWTEIKLVLDAFALPLTNLFKATIELCSTHANDASALRILFSSLILISKLFYSLNFQDLPEFFEDNMETWMNNFHTLLTLDNKLLQTDDEEEAGLLELLKSQICDNAALYAQKYDEEFQRYLPRFVTAIWNLLVTTGREVKYDLLVSNAIQFLASVCERPHYKNLFEDQNTLTSICEKVIVPNMEFRAADEEAFEDNSEEYIRRDLEGSDIDTRRRAACDLVRGLCKFFEGPVTGIFSGYVNSMLQEYAKNPSVNWKHKDAAIYLVTSLASKAQTQKHGITQANELVNLTEFFVNHILPDLKSNNVNEFPVLKADGIKYIMIFRNQVPKEHLLVSIPLLISHLEAESIVVHTYAAHALERLFTMRGSNNTTLFTAAEIAPFVEILLTNLFKALTLPGSSENEYIMKAIMRSFSLLQEAIIPYIPTLITQLTQKLLAVSKNPSKPHFNHYMFEAICLSIRITCKANPAAVVNFEEALFLVFTEILQNDVQEFIPYVFQVMSLLLETHKNDIPSSYMALFPHLLQPVLWERTGNIPALVRLLQAFLERGSSTIATAAADKIPGLLGVFQKLIASKANDHQGFYLLNSIIEHMPPESVDQYRKQIFILLFQRLQNSKTTKFIKSFLVFINLYCIKYGALALQEIFDGIQPKMFGMVLEKIIIPEIQKVSGNVEKKICAVGITKLLTECPPMMDTEYTKLWTPLLQSLIGLFELPEDDSIPDEEHFIDIEDTPGYQTAFSQLAFAGKKEHDPVGQMVNNPKIHLAQSLHKLSTACPGRVPSMVSTSLNAEALQYLQGYLQAASVTLL
2 | binds | Transportin 1 (protein, UniProt Q8BFY9 1-898) MVWDRQTKMEYEWKPDEQGLQQILQLLKESQSPDTTIQRTVQQKLEQLNQYPDFNNYLIFVLTKLKSEDEPTRSLSGLILKNNVKAHFQNFPNGVTDFIKSECLNNIGDSSPLIRATVGILITTIASKGELQNWPDLLPKLCSLLDSEDYNTCEGAFGALQKICEDSAEILDSDVLDRPLNIMIPKFLQFFKHSSPKIRSHAVACVNQFIISRTQALMLHIDSFIENLFALAGDEEAEVRKNVCRALVMLLEVRMDRLLPHMHNIVEYMLQRTQDQDENVALEACEFWLTLAEQPICKDVLVRHLPKLIPVLVNGMKYSDIDIILLKGDVEEDETIPDSEQDIRPRFHRSRTVAQQHEEDGIEEEDDDDDEIDDDDTISDWNLRKCSAAALDVLANVYRDELLPHILPLLKELLFHHEWVVKESGILVLGAIAEGCMQGMIPYLPELIPHLIQCLSDKKALVRSITCWTLSRYAHWVVSQPPDTYLKPLMTELLKRILDSNKRVQEAACSAFATLEEEACTELVPYLAYILDTLVFAFSKYQHKNLLILYDAIGTLADSVGHHLNKPEYIQMLMPPLIQKWNMLKDEDKDLFPLLECLSSVATALQSGFLPYCEPVYQRCVNLVQKTLAQAMLNNAQPEQYEAPDKDFMIVALDLLSGLAEGLGGNIEQLVARSNILTLMYQCMQDKMPEVRQSSFALLGDLTKACFQHVKPCIADFMPILGTNLNPEFISVCNNATWAIGEISIQMGIEMQPYIPMVLHQLVEIINRPNTPKTLLENTAITIGRLGYVCPQEVAPMLQQFIRPWCTSLRNIRDNEEKDSAFRGICTMISVNPSGVIQDFIFFCDAVASWINPKDDLRDMFCKILHGFKNQVGDENWRRFSDQFPLPLKERLAAFYGV

Molecular target: T2, murine EpCAM in fusion with yellow fluorescent protein (YFP) at the C-terminus, in E14TG2α ESC (murine)
Assay: co-IP; lysates of E14TG2α ESC stably expressing EpCAM-YFP or YFP; GFP-Trap agarose beads; immunoblot of endogenous partners

Row | binding | Molecule
3 | binds | Prohibitin 2, in E14TG2α ESC (from UniProt O35129 1-299)
4 | binds | Prohibitin 1, in E14TG2α ESC (protein, UniProt P67778 1-272) MAAKVFESIGKFGLALAVAGGVVNSALYNVDAGHRAVIFDRFRGVQDIVVGEGTHFLIPWVQKPIIFDCRSRPRNVPVITGSKDLQNVNITLRILFRPVASQLPRIYTSIGEDYDERVLPSITTEILKSVVARFDAGELITQRELVSRQVSDDLTERAATFGLILDDVSLTHLTFGKEFTEAVEAKQVAQQEAERARFVVEKAEQQKKAAIISAEGDSKAAELIANSLATAGDGLIELRKLEAAEDIAYQLSRSRNITYLPAGQSVLLQLPQ
5 | binds | Calnexin, in E14TG2α ESC (protein, UniProt P35564 21-591) HDGHDDDAIDIEDDLDDVIEEVEDSKSKSDASTPPSPKVTYKAPVPTGEVYFADSFDRGSLSGWILSKAKKDDTDDEIAKYDGKWEVDEMKETKLPGDKGLVLMSRAKHHAISAKLNKPFLFDTKPLIVQYEVNFQNGIECGGAYVKLLSKTAELSLDQFHDKTPYTIMFGPDKCGEDYKLHFIFRHKNPKTGVYEEKHAKRPDADLKTYFTDKKTHLYTLILNPDNSFEILVDQSVVNSGNLLNDMTPPVNPSREIEDPEDRKPEDWDERPKIADPDAVKPDDWDEDAPSKIPDEEATKPEGWLDDEPEYIPDPDAEKPEDWDEDMDGEWEAPQIANPKCESAPGCGVWQRPMIDNPNYKGKWKPPMIDNPNYQGIWKPRKIPNPDFFEDLEPFKMTPFSAIGLELWSMTSDIFFDNFIISGDRRVVDDWANDGWGLKKAADGAAEPGVVLQMLEAAEERPWLWVVYILTVALPVFLVILFCCSGKKQSNAMEYKKTDAPQPDVKDEEGKEEEKNKRDEEEEEEKLEEKQKSDAEEDGVTGSQDEEDSKPKAEEDEILNRSPRNRKPRRE

Molecular target: T1, murine EpCAM in fusion with yellow fluorescent protein (YFP) at the C-terminus, in mF9 cells (murine)
Assay: co-IP; whole-cell lysates of mF9 cells stably expressing EpCAM-YFP or YFP; 4 mg lysate, GFP-Trap agarose beads; washed with 0.5% tween in TBS; immunoblot of endogenous partners

Row | binding | Molecule
6 | binds | Ras-related protein Rab-7 (from UniProt P51150 1-207)
7 | binds | Prohibitin-2 (from UniProt O35129 1-299)
8 | binds | Prohibitin-1 (protein, UniProt P67778 1-272) MAAKVFESIGKFGLALAVAGGVVNSALYNVDAGHRAVIFDRFRGVQDIVVGEGTHFLIPWVQKPIIFDCRSRPRNVPVITGSKDLQNVNITLRILFRPVASQLPRIYTSIGEDYDERVLPSITTEILKSVVARFDAGELITQRELVSRQVSDDLTERAATFGLILDDVSLTHLTFGKEFTEAVEAKQVAQQEAERARFVVEKAEQQKKAAIISAEGDSKAAELIANSLATAGDGLIELRKLEAAEDIAYQLSRSRNITYLPAGQSVLLQLPQ
9 | binds | Calnexin (protein, UniProt P35564 21-591) HDGHDDDAIDIEDDLDDVIEEVEDSKSKSDASTPPSPKVTYKAPVPTGEVYFADSFDRGSLSGWILSKAKKDDTDDEIAKYDGKWEVDEMKETKLPGDKGLVLMSRAKHHAISAKLNKPFLFDTKPLIVQYEVNFQNGIECGGAYVKLLSKTAELSLDQFHDKTPYTIMFGPDKCGEDYKLHFIFRHKNPKTGVYEEKHAKRPDADLKTYFTDKKTHLYTLILNPDNSFEILVDQSVVNSGNLLNDMTPPVNPSREIEDPEDRKPEDWDERPKIADPDAVKPDDWDEDAPSKIPDEEATKPEGWLDDEPEYIPDPDAEKPEDWDEDMDGEWEAPQIANPKCESAPGCGVWQRPMIDNPNYKGKWKPPMIDNPNYQGIWKPRKIPNPDFFEDLEPFKMTPFSAIGLELWSMTSDIFFDNFIISGDRRVVDDWANDGWGLKKAADGAAEPGVVLQMLEAAEERPWLWVVYILTVALPVFLVILFCCSGKKQSNAMEYKKTDAPQPDVKDEEGKEEEKNKRDEEEEEEKLEEKQKSDAEEDGVTGSQDEEDSKPKAEEDEILNRSPRNRKPRRE
